Changes are numbered by the printed parent chain. Results are given in words; binding and its absence hold for the method and conditions named. Some binding calls cover weakened binding; strength is not graded here.
B1: TY101-4G1 (antibody, V domains shown)
VH: EVQLVESGGGLVQPGGSLRLSCAASGFTFSSYTMSWVRQAPGKGLEWVSYISHGGGDTYYADSVKGRFTISRDNSKNTLYLQMNSLRAEDTAVYYCARHSGYERGYYYVMDYWGQGTLVTVSS
VL: DIQLTQSPDSLSVSLGERATINCKASESVDYYGFSFLNWFQQKPGQPPKLLIYAASNRQSGVPDRFSGSGSGTDFTLTISSLQAEDVAVYFCQQSKEVPWTFGQGTKLEIKR
notes: TY101 is Variant 3 (VH a, VK c); isotype control is hIgG4; also called TY101 clone TY101-4G1
B2: TY101-01-09 (antibody, V domains shown)
VH: B1 VH
VL: B1 VL
notes: TY101 is Variant 3 (VH a, VK c); isotype control is hIgG4; also called TY101 clone TY101-01-09
B3: TY101-04-T3-05 (antibody, V domains shown)
VH: B1 VH
VL: B1 VL
notes: TY101 is Variant 3 (VH a, VK c); isotype control is hIgG4; also called TY101 clone TY101-04-T3-05
B4: Variant 7 (humanized, VH variant c / VK variant a) (antibody, V domains shown)
VH: B1 VH with Q3K, V5L, A61P, Q115K, L118T
VL: DIVMTQSPDSLAVSLGERATINCKSSESVDYYGFSFLNWFQQKPGQPPKLLIYAASNRESGVPDRFSGSGSGTDFTLTISSLQAEDVAVYYCQQSKEVPWTFGQGTKLEIK
B5: Variant 8 (humanized, VH variant c / VK variant b) (antibody, V domains shown)
VH: B1 VH with Q3K, V5L, A61P, Q115K, L118T
VL: B4 VL with S25A
B6: Variant 9 (humanized, VH variant c / VK variant c) (antibody, V domains shown)
VH: B1 VH with Q3K, V5L, A61P, Q115K, L118T
VL: B4 VL with V3Q, M4L, A12S, S25A, E59Q, Y91F

The chains behind the UniProt entries cited, without tags or fusion partners. Where a name states a change or a piece, a line headed by the entry shows the natural chain unless it says otherwise.
UniProt Q15116: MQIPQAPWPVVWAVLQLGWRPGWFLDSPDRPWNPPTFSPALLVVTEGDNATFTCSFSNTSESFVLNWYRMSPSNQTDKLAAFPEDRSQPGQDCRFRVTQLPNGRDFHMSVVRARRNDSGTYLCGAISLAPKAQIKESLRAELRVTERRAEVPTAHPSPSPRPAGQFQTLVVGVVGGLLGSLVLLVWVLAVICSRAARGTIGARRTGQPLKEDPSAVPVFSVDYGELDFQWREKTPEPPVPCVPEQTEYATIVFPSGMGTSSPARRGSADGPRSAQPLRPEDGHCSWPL

Molecular target: cynomolgus monkey PD-1 (cPD-1) expressed on cells (cynomolgus monkey) (UniProt B0LAJ3)
Assay: flow cytometry, FACS binding to CHOK1-cPD-1 cells

binding, binds:
B1
B2
B3

Molecular target: T1, hPD-1mIg fusion protein (human; mouse, UniProt Q15116 25-170)
T1 construct: extracellular domain; also called hPD-mIg; not shown: CH2-CH3 domain of mouse IgG2a heavy chain (plasmid pmIgG)
Assay: blocking assay by flow cytometry: 100 ng hPD1mIg pre-incubated with the antibody, then binding to hPD-L1 on CHO/hB7-H1 cells

binding, binds:
B4
B5
B6

Molecular target: T2, human PD-1 (hPD-1) expressed on cells (human, UniProt Q15116 25-288)
Assay: flow cytometry on CHO/hPD-1 cells, serially diluted mAbs

binding, binds:
B4
B5
B6

Molecular target: cynomolgus monkey PD-1 (cPD-1) expressed on cells (cynomolgus monkey) (UniProt B0LAJ3)
Assay: flow cytometry on CHOK1-cPD-1 cells

binding, binds:
B1
B2
B3

Molecular target: T2, human PD-1 (hPD-1) expressed on cells
Assay: flow cytometry on CHO/hPD-1 cells (FIG. 8)

binding, binds:
B4
B5
B6

Molecular target: T2, human PD-1 (hPD-1) expressed on cells
Assay: flow cytometry on CHO/hPD-1 cells, serially diluted antibody (0.06 to 2 ng)

binding, binds:
B4
B5
B6

Reference: patent US20190144543A1 (TAYU HUAXIA BIOTECH MEDICAL GROUP, published 2019)
